A: 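Coenzyme A biosynthesis protein CoaBC, Mycobacterium tuberculosis (UniProt P9WNZ1). Enzyme assay of CoaBC with a phosphate dye (Biomol Green) read at 650 nm. Tested at 30 µM. Higher reads as stronger inhibition, judged from the few compounds that gave an IC50. Most strong results did not repeat in a second test. About 67,000 compounds were tested under these conditions; 0.06% (about 40) showed 50% or more at least once.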
B: 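Histidine-tRNA ligase, Trypanosoma cruzi CL Brener (UniProt Q4DA54). Enzyme assay of histidyl-tRNA synthetase; the read-out is not stated. Compounds at 30 µM. Higher reads as stronger inhibition (inferred: compounds with an IC50 in retests scored well above the rest). Size under these conditions: about 69,000 compounds, about 31 of them at 50% or above in at least one test.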

Protein sequences, listed by entry. Tags and fused reporters are not part of them. Residues count along the entry.
UniProt P9WNZ1, whole entry: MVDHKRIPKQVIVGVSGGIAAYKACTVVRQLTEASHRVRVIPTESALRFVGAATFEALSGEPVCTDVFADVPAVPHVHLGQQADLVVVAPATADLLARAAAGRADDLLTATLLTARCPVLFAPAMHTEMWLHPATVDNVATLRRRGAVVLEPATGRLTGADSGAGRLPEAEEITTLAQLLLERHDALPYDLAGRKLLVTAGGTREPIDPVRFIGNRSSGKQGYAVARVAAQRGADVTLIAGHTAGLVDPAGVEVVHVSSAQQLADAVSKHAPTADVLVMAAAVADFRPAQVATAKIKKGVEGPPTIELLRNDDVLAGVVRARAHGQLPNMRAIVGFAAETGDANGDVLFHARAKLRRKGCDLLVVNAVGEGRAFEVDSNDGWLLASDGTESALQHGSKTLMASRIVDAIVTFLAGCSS
UniProt Q4DA54, 1-478: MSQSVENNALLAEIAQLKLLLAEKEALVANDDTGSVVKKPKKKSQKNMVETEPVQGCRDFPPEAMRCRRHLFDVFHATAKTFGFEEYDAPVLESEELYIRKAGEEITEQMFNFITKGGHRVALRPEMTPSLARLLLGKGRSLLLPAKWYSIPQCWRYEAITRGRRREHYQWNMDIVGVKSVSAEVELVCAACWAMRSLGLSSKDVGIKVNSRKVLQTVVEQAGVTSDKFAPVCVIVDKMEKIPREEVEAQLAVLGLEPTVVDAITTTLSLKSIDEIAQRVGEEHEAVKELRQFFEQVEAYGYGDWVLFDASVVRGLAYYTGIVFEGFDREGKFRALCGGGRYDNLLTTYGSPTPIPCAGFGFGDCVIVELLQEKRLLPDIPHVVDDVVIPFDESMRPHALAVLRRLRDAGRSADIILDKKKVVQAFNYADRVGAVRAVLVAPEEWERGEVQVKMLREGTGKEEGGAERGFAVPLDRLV

Results are given as percent effect. The record does not define 0% and 100%; most values in the screen are far below 50% and negative numbers occur (in some assays of this library far below -100). This is an unselected part of the compounds tested.

{"smiles": "Cc1nc(CC(=O)N2CCc3nnc(N(C)C)cc3C2)cs1", "A": 0.5263, "B": 6.158}
{"smiles": "Cn1ccnc1CN1CCCC1c1noc(C2CC2)n1", "stereo": "stereo not drawn", "A": 2.738, "B": 1.887}
{"smiles": "Cc1ccc(NCc2cn3c(n2)CN(Cc2ccoc2)CC3)nn1", "A": -13.73, "B": 3.448}
{"smiles": "Cc1cc(C)n(CC2CN(CCc3ccncc3)CCO2)n1", "stereo": "stereo not drawn", "A": 3.178, "B": 3.093}
{"smiles": "c1cc(CN2CCCC2c2noc(C3CC3)n2)on1", "stereo": "stereo not drawn", "A": 1.161, "B": 6.897}
{"smiles": "COc1ccc(C[C@H]2CNCC[C@@H]2OCC2CC2)cc1", "A": 5.277, "B": 4.854}
{"smiles": "N#Cc1cccc(N2CCCC3(CN(C(=O)NC4CC4)CCO3)C2)c1", "stereo": "stereo not drawn", "A": -2.083, "B": 6.952}
{"smiles": "CCN(CC)C(=O)N1CCN(CCc2ccncc2)CC1", "A": 3.293, "B": -3.012}
{"smiles": "COc1ccc(C2CCCCCN2S(C)(=O)=O)cc1", "stereo": "stereo not drawn", "A": -2.87, "B": 0}
{"smiles": "O=C(CSCc1ccncc1)NCC1CCN(C2CC2)C1", "stereo": "stereo not drawn", "A": -3.736, "B": 5.155}
{"smiles": "Cn1cnc(S(=O)(=O)NCC(O)c2ccc3c(c2)CCO3)c1", "stereo": "stereo not drawn", "A": -0.2554, "B": 2.424}
{"smiles": "c1ccc(N2CCOC(Cc3cccnc3)C2)cc1", "stereo": "stereo not drawn", "A": 3.406, "B": 2.239}
{"smiles": "Cc1nn(C)c(N(C)C)c1CNCC(O)COc1cccc(F)c1", "stereo": "stereo not drawn", "A": 5.076, "B": 4.933}
{"smiles": "COCCNC(=O)c1cc(-c2ccc3c(c2)CCO3)n[nH]1", "A": 2.525, "B": 1.754}
{"smiles": "CC(C)c1noc(C2CCCN2C(=O)Cc2cn3ccsc3n2)n1", "stereo": "stereo not drawn", "A": 3.273, "B": 4.082}
{"smiles": "Cc1nc(-c2cccnc2)ncc1C(=O)N1CCC(c2ncc[nH]2)CC1", "A": -1.018, "B": 6.024}
{"smiles": "O=C1OCCN1Cc1cc(C(F)(F)F)ccc1F", "A": 0.5115, "B": 4.04}
{"smiles": "CCc1noc(C(C)N2CCCN(Cc3noc(C4CC4)n3)CC2)n1", "stereo": "stereo not drawn", "A": 0.7299, "B": 9.091}
{"smiles": "COc1ccccc1CN1CCCC2(Cc3ccccc3CNC2=O)C1", "stereo": "stereo not drawn", "A": 1.579, "B": 5.325}
{"smiles": "CCOC(=O)NCCC(=O)NCc1ccc(Oc2ccc(F)cc2)nc1", "A": -0.3654, "B": 6.548}
{"smiles": "Cn1cc(CN2C[C@H]3CCC[C@@]3(COc3cccnc3)C2)cn1", "A": 0.495, "B": 7.735}
{"smiles": "Cc1ccc(N2CC[C@H]3OCC[C@@]3(C(=O)N(C)C)C2)nn1", "A": 2.24, "B": -1}
{"smiles": "Cc1ccc(N2CCC3(CCN(C(N)=O)CC3)CC2)nn1", "A": -0.3861, "B": 3.825}
{"smiles": "N#CC1(C(=O)N2CCC(Nc3cccnn3)CC2)CCCCC1", "A": 11.55, "B": 1.053}
{"smiles": "O=C(O)c1cc2c(c(S(=O)(=O)N(CCCO)c3ccccc3)c1)CCC2", "B": 9.211}
{"smiles": "Cc1oncc1C(=O)N[C@@H]1CN(CC2CC2)C[C@@H]2CCCO[C@@H]21", "A": 4.198, "B": 7.407}
{"smiles": "Cc1noc([C@H]2C[C@@H]3CCN(C(=O)c4cccn4C)C[C@H]3O2)n1", "A": 1.235, "B": 0}
{"smiles": "CN(C)S(=O)(=O)CCCOc1cccc(-n2ccnc2)c1", "A": 9.636, "B": -3.665}
{"smiles": "Cc1noc(CN(C)c2nc(-c3ccco3)nc3c2CCN(C)CC3)n1", "A": 0.3764, "B": 3.483}
{"smiles": "COc1ccc(CN(C)CCS(=O)(=O)c2ccc(Cl)cc2)cc1OC", "A": 7.393, "B": 3.333}
{"smiles": "CN(C)c1cnn(CC(=O)N2CCN(c3ccccc3)CC2)c(=O)c1", "A": -1.373, "B": 4.082}
{"smiles": "CS(=O)(=O)NC[C@]12COC[C@H]1CN(C(=O)CC1CCCC1)C2", "A": 2.222, "B": 6.349}
{"smiles": "Cc1nn(C)c(C)c1CN(C)C(=O)c1cccc(CCC(C)(C)O)c1", "A": 0, "B": 10.06}
{"smiles": "Cc1cc(C(=O)N2CC[C@@H]3CN(S(C)(=O)=O)CCO[C@@H]3C2)c(C)o1", "A": 5.141, "B": 8.287}
{"smiles": "Cn1cc(CNCC(c2ccc(Cl)cc2)n2cccn2)cn1", "stereo": "stereo not drawn", "A": -2.071, "B": 4.167}
{"smiles": "Cc1ccc(NC(=O)C2CSCN2C(=O)c2cnn(C)c2)c(C)c1", "stereo": "stereo not drawn", "A": -0.5181, "B": 0.7634}
{"smiles": "Cc1ccc(C(O)CNCc2c(C(C)C)nn(C)c2N(C)C)cc1", "stereo": "stereo not drawn", "A": -2.169, "B": 3.817}
{"smiles": "Cc1ccc(C(=O)N2C[C@@H](N3CCN(C)CC3)[C@H]3OCCC[C@H]32)cn1", "A": 5.322, "B": 10.55}
{"smiles": "CSCCC(=O)N1CCN(CC(O)C(C)(C)C)CC1", "stereo": "stereo not drawn", "A": 11.66, "B": 8.642}
{"smiles": "COCC1CN(CC2CC2)Cc2nccn2C1", "stereo": "stereo not drawn", "A": -3.448, "B": 10.92}
{"smiles": "CCOCCNC(=O)c1cccc(Cn2nc(C)cc2C)c1", "A": 3.316, "B": -1.339}
{"smiles": "Cn1cc(CN2CCCN(C(=O)c3cc[nH]n3)CC2)cn1", "A": 0.2591, "B": -2.29}
{"smiles": "CSCCC(NC(=O)c1ccc2ccccc2n1)C(=O)O", "stereo": "stereo not drawn", "A": -4.132, "B": 2.89}
{"smiles": "CC(=O)N1CCc2nnc(C3CCCN3CC3CCCCC3)n2CC1", "stereo": "stereo not drawn", "A": -1.112, "B": 3.802}
{"smiles": "Cc1ccc(CN2CCc3ncnc(C4CC4)c3CC2)s1", "A": 2.919, "B": -1.622}
{"smiles": "Cc1cnnn1Cc1ncn2c1CN(Cc1cccs1)CCC2", "A": 9.512, "B": 3.867}
{"smiles": "CN(C)Cc1nc2c(o1)CN(C(=O)NCc1cccc(F)c1)C2", "A": -29.3, "B": 11.49}
{"smiles": "Cc1nc2c(c(NC3CC3)n1)CCN(C(=O)CCO)CC2", "A": 5.076, "B": 10.84}

Some entries from above, unchanged:

{"smiles": "CC(=O)N1CCc2nnc(C3CCCN3CC3CCCCC3)n2CC1", "stereo": "stereo not drawn", "A": -1.112, "B": 3.802}
{"smiles": "COc1ccc(C[C@H]2CNCC[C@@H]2OCC2CC2)cc1", "A": 5.277, "B": 4.854}
{"smiles": "N#Cc1cccc(N2CCCC3(CN(C(=O)NC4CC4)CCO3)C2)c1", "stereo": "stereo not drawn", "A": -2.083, "B": 6.952}
{"smiles": "Cc1nn(C)c(N(C)C)c1CNCC(O)COc1cccc(F)c1", "stereo": "stereo not drawn", "A": 5.076, "B": 4.933}

Source: ChEMBL document CHEMBL3988442, “University of Dundee, Small-Polar-MMV Screening Library” (2021).